Measurements as given in PubChem BioAssay AID504834 (National Center for Advancing Translational Sciences (NCATS), 2011).
In all, about 320,000 compounds went through this assay and about 22,000 (6.9%) were called active. Inconclusive means that the source gave no clear call. Such entries were picked first, then a sample of the others. The call rests on the fitted dose curve; in most records, active means well fitted inhibition curve with a large enough effect; inconclusive means small, poorly fitted or top-dose-only effect, or another doubt; inactive means no such curve, though single readings can be large or run the other way. A potency beside an inconclusive call is a rough fit, not a confirmed value.

assay: Primary qHTS for delayed death inhibitors of the malarial parasite plastid, 96 hour incubation; conditions: P. falciparum luciferase reporter growth; series mostly up to 28.7 µM; activity change, negative = inhibition: at the top concentration
In short: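 Plates of compound plus infected erythrocytes (2% hematocrit, 0.05% parasitemia final) incubate 96 hours, 37 C, 5% CO2. Detection reagent added; reduced luminescence from the parasites' luciferase reporter flags inhibition.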
On the % scale 0 is the no-effect control and ±100 the full control effect; potency means the concentration at half of the fitted maximal effect.

**Q.** With c1cnc(N2CCN(c3cnccn3)CC2)nc1 as the compound, how does the Potency read?
**A.** inconclusive: 18.5 µM [inhibitor, single point]

**Q.** With C=CC[n+]1c(-c2ccc(OC)c(OC)c2)csc1NNC(=O)Nc1ccccc1 as the compound, how does the Potency read?
**A.** active: 9.28 µM

**Q.** Which Potency does the source give for CS(=O)(=O)N1CCc2ccccc2C1 here?
**A.** inconclusive: 9.28 µM [inhibitor, single point]

**Q.** Which Potency does the source give for CCCn1c(C(C)NC(=O)c2ccccc2)nc2ccccc21 (stereo not drawn) here?
**A.** inconclusive: 0.0037 µM [inhibitor, full curve, poor fit]

**Q.** With N=c1n(CC(=O)c2ccc([N+](=O)[O-])cc2)c2ccccc2n1Cc1ccc(Cl)cc1 as the compound, how does the Potency read?
**A.** inconclusive: 18.5 µM [inhibitor, single point]

**Q.** With CCN(CC(=O)Nc1cc(Cl)ccc1C)C(=O)CCS(=O)(=O)c1ccc(Cl)cc1 as the compound, how does the “activity change, negative = inhibition” value read?
**A.** inactive: -14.7%

**Q.** Which Potency does the source give for CCCN(c1ccc(C)cc1)c1nc(=O)c2cccnc2s1 here?
**A.** active: 6.57 µM

**Q.** Which “activity change, negative = inhibition” value does the source give for NC1=NC(=O)/C(=C\c2ccsc2)S1 here?
**A.** inactive: 13.5%

**Q.** Which “activity change, negative = inhibition” value does the source give for COc1nc(/C(N)=N/O)nc(N2CCCCC2)n1 here?
**A.** inactive: -7.91%

**Q.** For O=C(O)c1cccc(Cn2c(Cl)c(/C=N/NC(=O)c3cc4ccccc4cc3O)sc2=O)c1, which Potency is on record?
**A.** inconclusive: 1.04 µM [inhibitor, partial curve, poor fit]

**Q.** Which Potency does the source give for Cc1nc2ccccc2n1Cc1ccccc1 here?
**A.** inconclusive: 0.147 µM [inhibitor, partial curve, poor fit]

**Q.** For CC(C)Nc1cccnc1N1CCN(C(=O)c2cc3cc(NS(C)(=O)=O)ccc3[nH]2)CC1, which Potency is on record?
**A.** inconclusive: 12 µM [inhibitor, partial curve]

**Q.** Which Potency does the source give for CCN(CC)c1ccc(NC(=O)c2ccc(=O)[nH]c2)cc1S(=O)(=O)Nc1ccccc1OC here?
**A.** active: 6.57 µM

**Q.** For CCCCNC(=O)Cn1nc(C)c(S(=O)(=O)N2CCOCC2)c1C, which Potency is on record?
**A.** inconclusive: 0.928 µM [inhibitor, full curve]

**Q.** With N#CCOc1ccc(C2=NO[C@@H]3[C@@H]4C[C@@H]([C@H]5C(=O)N(c6ccc7c(c6)OCO7)C(=O)[C@@H]45)[C@H]23)cc1 as the compound, how does the Potency read?
**A.** inconclusive: 5.22 µM [inhibitor, partial curve, poor fit]

**Q.** With COc1ccc(CNC(=O)CCCn2c(SCC#N)nc3cc4c(cc3c2=O)OCO4)cc1 as the compound, how does the Potency read?
**A.** inconclusive: 14.7 µM [inhibitor, single point]

**Q.** For CC(C)c1ccc(C2C3=C(COC3=O)Nc3cc4c(cc32)OCO4)cc1 (stereo not drawn), which Potency is on record?
**A.** inconclusive: 18.5 µM [inhibitor, single point]

**Q.** For Cn1c(=O)c2c(ncn2CC(=O)N/N=C/c2ccc(Br)s2)n(C)c1=O, which Potency is on record?
**A.** inconclusive: 14.7 µM [inhibitor, partial curve, poor fit]
